{"source": "patent US20050036992A1", "about": "“Novel use of liver X receptor agonists” (IRM LLC, priority 2002, published 2005)", "system": "LXR/RXR heterodimer", "test": "EMSA", "conditions": "in vitro translated proteins, radiolabeled mGLUT4 oligonucleotide; exact oligo bounds not stated, SEQ 1 is the aligned LXRE; protein translated in vitro; label: radiolabel", "note": "For at least one entry, the source does not settle the construct or the ends of the probe.", "data": [{"sequence": "CTCCGGGTTACTTCGGGGCATACA (double strand) [mouse GLUT4 promoter LXRE (DR-4)]", "values": [{"measurement": "binding result", "result": "binds"}]}]}
